Experimental data taken from patent publication US20180086821A1 (MAYO FOUNDATION FOR MEDICAL EDUCATION AND RESEARCH, published 2018).

B1: monoclonal antibody SCH94.03 (antibody, V domains shown)
VH: QVQLQQPGTELVKPGASVKLSCKASGYTFTSYWMHWVKQRPGQGLEWIGNINPSNGGTNYNEKFKSKATLTVDKSSSTAYMQLSSLTSEDSAVYYCARRAPYYGSRNFDYWGQGTTLTVSS
VL: DIQMTQTTSSLSASLGDRVTISCRASQDISNYLNWYQQKPDGTVKLLIYYTSRLHSGVPSRFSGSGSGTDYSLTISNLEQEDIATYFCQQGNTLPWTFGGGTKLEIKR
B2: mAb O1 (antibody, V domains shown)
VH: QVQLQQSGPELVKPGALVKISCKASGYTFTSYDINWVKQRPGQGLEWIGWIYPGDGSTKYNEKFKGKATLTADKSSSTAYMQLSSLTSENSAVYFCARGARFYWYFDVWGAGTTVTVSS
VL: DVQITQSPSYLAASPGETITINCRASKSISKYLAWYQEKPGKTNKLLIYSGSTLQSGIPSRFSGSGSGTDFTLTISSLEPEDFAMYYCQQHNEYPYTFGGGTKLEIKR
notes: Mouse IgM kappa; Entries may include the leader peptide; The hybridoma also makes the MOPC21 kappa chain; also called 01

How the values were obtained:
albumin = assay: solid-phase ELISA
[1] = molecular target: myelin basic protein (MBP); assay: solid-phase ELISA
myosin = assay: solid-phase ELISA
thyroglobulin = assay: solid-phase ELISA
transferrin = assay: solid-phase ELISA
tubulin = assay: solid-phase ELISA
vimentin = assay: solid-phase ELISA
[2] = molecular target: myelin basic protein (MBP); assay: ELISA, MBP coated on plate
hemoglobin = assay: solid-phase ELISA

Binder	binding (albumin)	binding [1]	binding (myosin)	binding (thyroglobulin)	binding (transferrin)	binding (tubulin)	binding (vimentin)	binding [2]	binding (hemoglobin)
B1	no binding	no binding	no binding	binds	no binding	binds	binds	no binding	
B2	no binding	no binding	no binding	no binding	no binding	no binding	no binding		no binding

These are yes or no findings as the source states them, for the method shown. For some of these results: Binding calls can cover weak binding; strength is not graded here.
